Assay results as given in patent US20080031839A1, “Agent For Prermanent Hair Processing” (Showa Denko K.K., priority 2004, published 2008).
At least one structure is not confirmed: it was looked up by name or label, or the drawing left a doubt.

Assay: Permanent wave processing of hair, wave efficiency by Kilby method
Details: compound at 2% in terms of reducing power of thioglycolic acid, soaked at 35° C. for 20 minutes, bromate second liquid 25° C. 10 minutes
Method: A permanent wave first liquid was prepared as described below using the alkoxyalkyl mercaptocarboxylate (TGE-1) obtained in Synthetic Example 1. A permanent wave second liquid was prepared as described below. Hair was permanent waved with these liquids, and the wave efficiency was obtained.
[…] The mixing was performed such that the total amount would be 100 g. A permanent wave first liquid was thus prepared.
The agent contained TGE-1 in an amount of 2% in terms of reducing power of thioglycolic acid.
5 g of sodium bromate and 95 g of purified water were mixed together to give a permanent wave second liquid.
The wave efficiency was evaluated by a Kilby method as described in Fragrance Journal Extra Edition (1984, No. 5, P. 442). A liquid containing cysteamine hydrochloride was used as the comparative agent.
Chinese hair (approximately 20 cm long) was fixed to a Kilby apparatus and was soaked in the permanent wave first liquid heated to 35° C. over a period of 20 minutes. Thereafter, the hair was lightly towel dried such that the first liquid would not drip. The hair was then given the bromate-based permanent wave second liquid, and was allowed to stand at 25° C. for 10 minutes. After the completion of the treatment with the second liquid, the hair was rinsed with running water and was removed from the Kilby apparatus, followed by drying. The dried hair was measured and the wave efficiency was determined from the following equation. Wave efficiency(%)=100−[100×(B−A)]÷(C−A) wherein:
A: Distance between the first and sixth rods of the Kilby apparatus (actual measurement value between the central points of the rods)
B: Length of six waves of curled hair
C: Length of straightened six waves of curled hair
A permanent wave first liquid was prepared as described in Example 1, except that TGE-1 was replaced with the alkoxyalkyl mercaptocarboxylate indicated in Table 1. The permanent wave first liquid contained the alkoxyalkyl mercaptocarboxylate in an amount of 2% in terms of reducing power of thioglycolic acid.
Hair was permanent waved and the wave efficiency was obtained by the procedure of Example 1 with use of the permanent wave first liquid prepared as above and the permanent wave second liquid used in Example 1.
A permanent wave first liquid was prepared as described in Example 1, except that TGE-1 was replaced with the cysteamine hydrochloride indicated in Table 1. The permanent wave first liquid contained the […] in an amount of 2% in terms of reducing power of thioglycolic acid.

Work on COCCOCCOC(=O)CS [TGE-4, 5-methoxy-3-oxapentyl thioglycolate] yielded a Wave efficiency (pH 6 first liquid) of 75%, a Wave efficiency (pH 7.5 first liquid) of 76% and a Wave efficiency (pH 9 first liquid) of 76%.
Work on COCCOC(=O)CS [TGE-1, 2-methoxyethyl thioglycolate] yielded a Wave efficiency (pH 6 first liquid) of 83%, a Wave efficiency (pH 7.5 first liquid) of 85% and a Wave efficiency (pH 9 first liquid) of 85%.
